Amino acid sequences for entries named in this document (tags omitted).
UniProt P15531: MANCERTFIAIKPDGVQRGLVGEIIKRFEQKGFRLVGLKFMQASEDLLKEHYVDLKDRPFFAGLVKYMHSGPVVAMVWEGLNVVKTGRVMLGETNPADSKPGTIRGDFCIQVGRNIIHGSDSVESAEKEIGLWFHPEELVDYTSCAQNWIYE
UniProt P14618: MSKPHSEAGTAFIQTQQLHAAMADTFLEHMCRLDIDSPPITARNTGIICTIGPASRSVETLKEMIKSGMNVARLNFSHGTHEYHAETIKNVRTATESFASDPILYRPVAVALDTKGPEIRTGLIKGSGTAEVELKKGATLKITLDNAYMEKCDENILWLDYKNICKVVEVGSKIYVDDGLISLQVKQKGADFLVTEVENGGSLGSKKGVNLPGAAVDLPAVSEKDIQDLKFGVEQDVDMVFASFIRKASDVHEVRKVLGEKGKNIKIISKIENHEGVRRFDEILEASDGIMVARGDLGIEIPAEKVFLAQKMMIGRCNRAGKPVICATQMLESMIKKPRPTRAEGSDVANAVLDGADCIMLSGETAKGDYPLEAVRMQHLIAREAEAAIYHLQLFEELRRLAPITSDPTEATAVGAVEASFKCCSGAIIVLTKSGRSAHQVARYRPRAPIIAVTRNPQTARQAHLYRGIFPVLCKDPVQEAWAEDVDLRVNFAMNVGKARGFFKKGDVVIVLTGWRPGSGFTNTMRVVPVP
UniProt P06733: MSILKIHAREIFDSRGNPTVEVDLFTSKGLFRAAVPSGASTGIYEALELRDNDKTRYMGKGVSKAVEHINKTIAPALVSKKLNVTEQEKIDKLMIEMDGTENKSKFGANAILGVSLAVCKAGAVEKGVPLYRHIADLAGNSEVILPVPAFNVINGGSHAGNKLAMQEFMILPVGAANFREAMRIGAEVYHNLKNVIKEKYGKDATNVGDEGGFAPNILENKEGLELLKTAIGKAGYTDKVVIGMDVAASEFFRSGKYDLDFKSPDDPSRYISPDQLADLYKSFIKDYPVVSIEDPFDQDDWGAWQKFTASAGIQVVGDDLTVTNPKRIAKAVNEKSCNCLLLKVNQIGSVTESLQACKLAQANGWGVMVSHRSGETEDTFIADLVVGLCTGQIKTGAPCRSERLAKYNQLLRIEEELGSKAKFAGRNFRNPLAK
UniProt P04406: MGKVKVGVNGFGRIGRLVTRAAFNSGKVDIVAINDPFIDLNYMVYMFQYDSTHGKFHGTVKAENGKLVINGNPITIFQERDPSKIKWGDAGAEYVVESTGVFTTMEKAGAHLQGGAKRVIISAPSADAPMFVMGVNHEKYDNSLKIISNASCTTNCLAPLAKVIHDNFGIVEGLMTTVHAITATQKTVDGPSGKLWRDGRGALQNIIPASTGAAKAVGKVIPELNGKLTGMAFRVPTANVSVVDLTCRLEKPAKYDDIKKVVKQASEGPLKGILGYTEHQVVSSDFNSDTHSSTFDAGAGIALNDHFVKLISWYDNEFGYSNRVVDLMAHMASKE

According to paper PMC7247550:

Target: NME1 (human (endogenous in SK-N-BE(2) and SK-N-AS)) (UniProt P15531)
Experiment: affinity purification with mass spectrometry; endogenous NME1 immunoprecipitated with mouse monoclonal nm23-H1 sc-465 antibody and protein A agarose from SK-N-BE(2) and SK-N-AS lysates (20 mM Tris HCl pH 8, 100 mM NaCl, 2 mM EDTA, 1% NP40, Benzonase), 4 °C; eluted proteins digested with trypsin, LC-MS/MS

For PKM (from UniProt P14618 1-531), the binding was “binds”.

For ENO1 (from UniProt P06733 1-434), the binding was “binds”.

For GAPDH (from UniProt P04406 1-335), the binding was “binds”.

Results are given in words; binding and its absence hold for the method and conditions named. Binding seen in cells or lysates may run through a third protein. These calls come from enrichment with a bait or labelling near it, and not all partners need be listed.
